In patent US20050043262A1, “Novel specific inhibitor of the cyclin kinase inhibitor p21Waf1/Cip1 and methods of using the inhibitor” (priority 2000, published 2005):
No constants are given. Whether binding was seen depends on the method and setting. Binding seen in cells or lysates may run through a third protein. Some binding calls cover weakened binding; strength is not graded here.

Protein sequences, listed by entry. Tags and fused reporters are not part of them.
UniProt P24385: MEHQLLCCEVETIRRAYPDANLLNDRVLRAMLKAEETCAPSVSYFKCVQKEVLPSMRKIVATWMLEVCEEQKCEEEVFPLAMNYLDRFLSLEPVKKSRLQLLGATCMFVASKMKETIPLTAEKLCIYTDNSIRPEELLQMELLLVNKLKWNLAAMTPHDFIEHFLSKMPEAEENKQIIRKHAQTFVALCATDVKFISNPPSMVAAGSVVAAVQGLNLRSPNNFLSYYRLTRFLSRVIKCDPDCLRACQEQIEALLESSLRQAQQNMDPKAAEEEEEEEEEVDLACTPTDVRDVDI
UniProt P39948: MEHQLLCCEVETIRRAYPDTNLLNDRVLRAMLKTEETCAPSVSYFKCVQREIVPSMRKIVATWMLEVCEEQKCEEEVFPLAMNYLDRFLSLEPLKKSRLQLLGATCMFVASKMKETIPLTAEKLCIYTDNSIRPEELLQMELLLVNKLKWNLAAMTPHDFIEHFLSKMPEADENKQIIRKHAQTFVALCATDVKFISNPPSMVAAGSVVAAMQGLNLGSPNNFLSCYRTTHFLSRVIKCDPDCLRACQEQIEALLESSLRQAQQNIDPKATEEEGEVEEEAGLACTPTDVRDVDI

How the values were obtained:
[1] = molecular target: cdk4 (endogenous, A431 human squamous carcinoma cells) (human) (UniProt P11802); test: co-immunoprecipitation from A431 cell lysate, FIG. 12
[2] = molecular target: cdk4 (endogenous, A431 human squamous carcinoma cells) (human) (UniProt P11802); test: co-immunoprecipitation from A431 cell lysate: IP cyclin D1, immunoblot cdk4
[3] = molecular target: T1, cdk 4 (endogenous, A10 rat aortic VSM cells) (rat) (UniProt P35426); test: co-immunoprecipitation from A10 VSM cell lysate, FIG. 7
T1 sequence (looked up): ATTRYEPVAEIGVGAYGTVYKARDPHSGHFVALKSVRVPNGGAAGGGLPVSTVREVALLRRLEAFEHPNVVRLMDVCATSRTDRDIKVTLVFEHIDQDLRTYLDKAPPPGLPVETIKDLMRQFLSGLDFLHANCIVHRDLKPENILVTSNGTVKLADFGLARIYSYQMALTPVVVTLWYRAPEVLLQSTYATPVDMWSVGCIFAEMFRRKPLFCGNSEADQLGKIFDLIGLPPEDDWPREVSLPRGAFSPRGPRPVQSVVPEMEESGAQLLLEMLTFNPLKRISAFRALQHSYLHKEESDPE

[4] = molecular target: T1, cdk 4 (endogenous, A10 rat aortic VSM cells) (rat); test: co-immunoprecipitation from A10 VSM cell lysate: IP cyclin D1, immunoblot cdk 4

| binding [1] | binding [2] | binding [3] | binding [4] | Substance |
| --- | --- | --- | --- | --- |
| binds | binds | – | – | cyclin D1 (endogenous, A431 human squamous carcinoma cells) (from UniProt P24385 1-295) |
| – | – | binds | binds | cyclin D1 (endogenous, A10 rat aortic VSM cells) (from UniProt P39948 1-295) |
